Reference: US20160090422A1 (Genentech, published 2016)
No constants are given. Whether binding was seen depends on the method and setting. Some entries that bind do so weakly or less than the wild type. One block for each binder: values may come before it.

Legend:
[1] = target: T1, rhesus monkey CRTh2 (rhesus monkey); experiment: flow cytometry, 293 cells expressing rhesus CRTh2
T1 sequence: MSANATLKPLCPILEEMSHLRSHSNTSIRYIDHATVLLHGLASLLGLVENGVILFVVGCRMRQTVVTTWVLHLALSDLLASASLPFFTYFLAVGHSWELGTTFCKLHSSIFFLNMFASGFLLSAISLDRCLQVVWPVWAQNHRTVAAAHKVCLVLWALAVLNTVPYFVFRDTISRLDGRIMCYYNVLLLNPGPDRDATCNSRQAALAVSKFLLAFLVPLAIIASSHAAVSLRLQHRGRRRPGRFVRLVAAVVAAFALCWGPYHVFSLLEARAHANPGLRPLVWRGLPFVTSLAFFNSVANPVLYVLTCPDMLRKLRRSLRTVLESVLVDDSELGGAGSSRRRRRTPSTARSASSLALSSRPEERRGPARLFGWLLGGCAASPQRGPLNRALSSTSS

[2] = target: T2, cynomolgus monkey CRTh2 (cynomolgus monkey); experiment: flow cytometry, 293 cells expressing cynomolgus CRTh2 [Cont.]
T2 sequence: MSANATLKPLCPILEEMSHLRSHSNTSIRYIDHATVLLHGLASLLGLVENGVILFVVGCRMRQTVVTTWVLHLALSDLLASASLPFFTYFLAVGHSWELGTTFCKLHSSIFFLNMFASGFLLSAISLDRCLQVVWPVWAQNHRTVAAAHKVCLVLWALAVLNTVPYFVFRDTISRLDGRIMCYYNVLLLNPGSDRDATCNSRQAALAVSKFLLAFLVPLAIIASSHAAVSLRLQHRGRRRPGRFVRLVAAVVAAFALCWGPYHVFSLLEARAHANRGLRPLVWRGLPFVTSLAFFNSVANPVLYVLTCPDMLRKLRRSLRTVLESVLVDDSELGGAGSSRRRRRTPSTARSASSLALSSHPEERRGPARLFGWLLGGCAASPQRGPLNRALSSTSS

[3] = target: T2, cynomolgus monkey CRTh2 (cynomolgus monkey); experiment: flow cytometry, 300.19 cells expressing amino-terminal Flag-tagged cynomolgus CRTh2 [Cont.]
[4] = target: T1, rhesus monkey CRTh2 (rhesus monkey); experiment: flow cytometry, 300.19 cells expressing amino-terminal Flag-tagged rhesus CRTh2; antibody at 5 and 0.5 ug/ml
[5] = target: T2, cynomolgus monkey CRTh2 (cynomolgus monkey); experiment: condition: 20 ug/ml (highest concentration, FIG. 3A legend); flow cytometry on 293 or 300.19 cells overexpressing cyno CRTh2
[6] = target: T1, rhesus monkey CRTh2 (rhesus monkey); experiment: condition: 20 ug/ml (highest concentration, FIG. 3A legend); flow cytometry on 293 or 300.19 cells overexpressing rhesus CRTh2
human CRTh2 [7] = target: T3, human CRTh2 (human, UniProt Q9Y5Y4 1-395); experiment: flow cytometry on 293 cells overexpressing human CRTh2
T3 construct: also native CRTh2 on primary human basophils, eosinophils and Th2 cells; also called hCRTh2; chemoattractant receptor-homologous molecule expressed on T helper 2 cells
T3 sequence: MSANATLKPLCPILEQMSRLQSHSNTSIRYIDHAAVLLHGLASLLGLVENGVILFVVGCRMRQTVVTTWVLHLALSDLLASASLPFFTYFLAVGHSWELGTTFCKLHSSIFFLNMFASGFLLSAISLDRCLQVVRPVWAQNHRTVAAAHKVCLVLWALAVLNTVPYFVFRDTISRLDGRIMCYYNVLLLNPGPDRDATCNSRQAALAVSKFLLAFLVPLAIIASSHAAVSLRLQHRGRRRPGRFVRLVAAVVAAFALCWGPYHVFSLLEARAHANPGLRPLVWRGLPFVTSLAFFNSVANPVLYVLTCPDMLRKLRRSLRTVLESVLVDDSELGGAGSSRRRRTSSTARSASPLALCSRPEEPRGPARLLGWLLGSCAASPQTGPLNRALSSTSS

human CRTh2 [8] = target: T3, human CRTh2; experiment: flow cytometry on primary human basophils and eosinophils
human CRTh2 [9] = target: T3, human CRTh2; experiment: flow cytometry, 293 cells expressing human CRTh2; hybridoma antibody at 20, 2 and 0.2 ug/ml [Cont.]
human CRTh2 [10] = target: T3, human CRTh2; experiment: flow cytometry on basophils and eosinophils of human PBMC; antibody at 5 and 0.5 ug/ml, labelled anti-mouse IgG [Cont.]
[11] = target: T1, rhesus monkey CRTh2 (rhesus monkey); experiment: condition: 0.55 ug/ml (highest concentration, FIG. 15B legend); flow cytometry on 293 cells expressing rhesus CRTh2
[12] = target: T1, rhesus monkey CRTh2 (rhesus monkey); experiment: flow cytometry, 293 cells expressing rhesus CRTh2; antibody at 0.55, 0.18, 0.06, 0.02 and 0.006 ug/ml [Cont.]
[13] = target: T1, rhesus monkey CRTh2 (rhesus monkey); experiment: condition: 10 ug/ml (highest concentration, FIG. 3D-F legend); flow cytometry on 293 / 300.19 cells overexpressing rhesus CRTh2 and on primary rhesus basophils

B1: murine anti-CRTh2 antibody 8B1 (antibody, V domains shown)
VH: QVQLQQSGTGLVRPGTSVRVSCKASGYAFITYLIEWIKQRPGQGLEWIGVIHPGSGNSHYNEKFKGKATLTADTSSSTAYMQLSSLTSGDSAVYFCARSGSSSFDYYAMDFWGQGTSVTVSS
VL: DIQMTQSPSSLSASLGERVSLTCRASQEISGYFSWLQQKPDGTIKRLIYAASTLDSGVPKRFSGSRSGSDYSLTISSLESEDFADYYCLQYANYPYTFGGGTKLEIK
notes: Mouse monoclonal, hybridoma antibody or recloned with mouse IgG2a Fc; whole IgG in the Scatchard assay; also called mu8B1; Mab 8B1
binding [1]: no binding (tested: 20 ug/ml)
binding [2]: no binding (tested: 20 ug/ml)
binding [3]: no binding (tested: 1 ug/ml)
binding [4]: no binding (tested: 5 ug/ml)
binding [5]: no binding
binding [6]: no binding

B4: humanized anti-CRTh2 antibody hu19A2.v1 (antibody, human IgG1, kappa, V domains shown)
VH: EVQLVESGGGLVQPGGSLRLSCAASGFTFSSYSMSWVRQAPGKGLEWVAYISNGGSTTYYPGTVEGRFTISRDNSKNTLYLQMNSLRAEDTAVYYCARHRTNWDFDYWGQGTLVTVSS
VL: DIQMTQSPSSLSASVGDRVTITCRASENIYSNLAWYQQKPGKAPKLVVYAATQLADGVPSRFSGSGSGTDYTLTISSLQPEDFATYYCQHFWITPWTFGQGTKVEIKR
notes: also called h19A2.v1
binding [11]: no binding
binding [12]: no binding (tested: 0.55 ug/ml)
binding [13]: no binding

Second part, the binder after the results:

binding (human CRTh2 [7]): binds
binding (human CRTh2 [8]): binds
binding (human CRTh2 [9]): binds
binding (human CRTh2 [10]): binds
B2: murine anti-CRTh2 antibody 31A5 (antibody, mouse IgG2a, V domains shown)
VH: QVQLKESGPGLVAPSQSLSITCTVSGFSLTGYGVNWVRQPPGKGLEWLGMIWDDGTTDFDSALRSRLSISKDNSKSQVFLKMNSLQTDDTARYFCARGDYGYAMDYWGQGTSVTVSS
VL: DIQMTQSPASLSVSVGETVTITCRASVNIYSNLAWYQQRQGKSPQLLVYAATNLAEGVPSRFSGSGSGTQYSLKINSLQSEDFGSYYCQHFWVTPYTFGGGTKLEIK
notes: Mouse monoclonal (hybridoma antibody; heavy chain also recloned with mouse IgG2a Fc); also called mu31A5

binding [1]: no binding (tested: 20 ug/ml)
binding [4]: no binding (tested: 5 ug/ml)
binding [6]: no binding
B3: murine anti-CRTh2 antibody 19A2 (antibody, V domains shown)
VH: EVKLVESGGGLVQPGGSLKLSCAASGFTFSSYSMSWVRQTPEKRLEWVAYISNGGSTTYYPGTVEGRFTISRDNAKNTLFLQMSSLRSKDTAMYYCARHRTNWDFDYWGQGTTLTVSS
VL: DIQMTQSPASLSVSVGETVTITCRASENIYSNLAWYQQKQGKSPQLVVYAATQLADGVPSRFSGSGSGTQYSLKINSLQSEDFGSYYCQHFWITPWTFGGGTKLEIK
notes: whole IgG in the Scatchard assay; also called mu19A2; Mab 19A2
